Assay results as given in PMC5722314.
These are yes or no findings as the source states them, for the method shown.

Biological target: recombinant full-length mouse PrP (wt rPrP), PrP23-230 (mouse) (UniProt P04925)
Experiment: two-colour fluorescence cross-correlation spectroscopy (FCS/SIFT); both purified

With “recombinant full-length mouse PrP (wt rPrP), PrP23-230 (from UniProt P04925 23-230)” the binding was “no binding (condition: in 0.2% SDS)”.
